This is one part of the list.
Compound: Cc1cc(ccc1-c1ccccc1)C(=O)N1CCCN(CC1)C(=O)CCl [compound 10]
Assay: probe-labelled cysteine peptide fold change vs DMSO (competition) (log2 fold change); higher = less target engagement (more negative = stronger competition)
Conditions: THP-1, incubation time: 4 h
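Note: competitive profiling in live THP-1 cells: cysteine peptides tagged with an iodoacetamide desthiobiotin (IA-DTB) probe, intensity after compound treatment relative to DMSO-treated cells.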

The chains behind the UniProt entries cited, without tags or fusion partners. Where a name states a change or a piece, a line headed by the entry shows the natural chain unless it says otherwise.
UniProt O60504: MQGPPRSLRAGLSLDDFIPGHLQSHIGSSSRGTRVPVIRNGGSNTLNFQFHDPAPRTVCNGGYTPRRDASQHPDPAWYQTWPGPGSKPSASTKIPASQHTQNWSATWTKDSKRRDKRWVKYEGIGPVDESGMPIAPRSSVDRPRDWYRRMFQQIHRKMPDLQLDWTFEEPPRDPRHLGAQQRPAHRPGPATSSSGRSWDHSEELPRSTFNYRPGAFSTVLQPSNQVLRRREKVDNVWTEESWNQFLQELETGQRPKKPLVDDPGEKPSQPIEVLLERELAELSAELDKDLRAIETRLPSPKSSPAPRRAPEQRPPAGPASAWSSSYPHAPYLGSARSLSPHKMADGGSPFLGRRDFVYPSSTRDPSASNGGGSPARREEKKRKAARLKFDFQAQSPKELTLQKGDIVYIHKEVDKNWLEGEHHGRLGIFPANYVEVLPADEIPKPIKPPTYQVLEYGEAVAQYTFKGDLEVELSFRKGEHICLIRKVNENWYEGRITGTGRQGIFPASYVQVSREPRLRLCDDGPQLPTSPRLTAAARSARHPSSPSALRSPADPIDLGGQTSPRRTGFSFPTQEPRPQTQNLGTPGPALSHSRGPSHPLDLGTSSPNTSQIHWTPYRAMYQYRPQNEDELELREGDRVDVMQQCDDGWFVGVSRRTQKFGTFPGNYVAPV
UniProt Q6ZRS2, whole entry, looked up: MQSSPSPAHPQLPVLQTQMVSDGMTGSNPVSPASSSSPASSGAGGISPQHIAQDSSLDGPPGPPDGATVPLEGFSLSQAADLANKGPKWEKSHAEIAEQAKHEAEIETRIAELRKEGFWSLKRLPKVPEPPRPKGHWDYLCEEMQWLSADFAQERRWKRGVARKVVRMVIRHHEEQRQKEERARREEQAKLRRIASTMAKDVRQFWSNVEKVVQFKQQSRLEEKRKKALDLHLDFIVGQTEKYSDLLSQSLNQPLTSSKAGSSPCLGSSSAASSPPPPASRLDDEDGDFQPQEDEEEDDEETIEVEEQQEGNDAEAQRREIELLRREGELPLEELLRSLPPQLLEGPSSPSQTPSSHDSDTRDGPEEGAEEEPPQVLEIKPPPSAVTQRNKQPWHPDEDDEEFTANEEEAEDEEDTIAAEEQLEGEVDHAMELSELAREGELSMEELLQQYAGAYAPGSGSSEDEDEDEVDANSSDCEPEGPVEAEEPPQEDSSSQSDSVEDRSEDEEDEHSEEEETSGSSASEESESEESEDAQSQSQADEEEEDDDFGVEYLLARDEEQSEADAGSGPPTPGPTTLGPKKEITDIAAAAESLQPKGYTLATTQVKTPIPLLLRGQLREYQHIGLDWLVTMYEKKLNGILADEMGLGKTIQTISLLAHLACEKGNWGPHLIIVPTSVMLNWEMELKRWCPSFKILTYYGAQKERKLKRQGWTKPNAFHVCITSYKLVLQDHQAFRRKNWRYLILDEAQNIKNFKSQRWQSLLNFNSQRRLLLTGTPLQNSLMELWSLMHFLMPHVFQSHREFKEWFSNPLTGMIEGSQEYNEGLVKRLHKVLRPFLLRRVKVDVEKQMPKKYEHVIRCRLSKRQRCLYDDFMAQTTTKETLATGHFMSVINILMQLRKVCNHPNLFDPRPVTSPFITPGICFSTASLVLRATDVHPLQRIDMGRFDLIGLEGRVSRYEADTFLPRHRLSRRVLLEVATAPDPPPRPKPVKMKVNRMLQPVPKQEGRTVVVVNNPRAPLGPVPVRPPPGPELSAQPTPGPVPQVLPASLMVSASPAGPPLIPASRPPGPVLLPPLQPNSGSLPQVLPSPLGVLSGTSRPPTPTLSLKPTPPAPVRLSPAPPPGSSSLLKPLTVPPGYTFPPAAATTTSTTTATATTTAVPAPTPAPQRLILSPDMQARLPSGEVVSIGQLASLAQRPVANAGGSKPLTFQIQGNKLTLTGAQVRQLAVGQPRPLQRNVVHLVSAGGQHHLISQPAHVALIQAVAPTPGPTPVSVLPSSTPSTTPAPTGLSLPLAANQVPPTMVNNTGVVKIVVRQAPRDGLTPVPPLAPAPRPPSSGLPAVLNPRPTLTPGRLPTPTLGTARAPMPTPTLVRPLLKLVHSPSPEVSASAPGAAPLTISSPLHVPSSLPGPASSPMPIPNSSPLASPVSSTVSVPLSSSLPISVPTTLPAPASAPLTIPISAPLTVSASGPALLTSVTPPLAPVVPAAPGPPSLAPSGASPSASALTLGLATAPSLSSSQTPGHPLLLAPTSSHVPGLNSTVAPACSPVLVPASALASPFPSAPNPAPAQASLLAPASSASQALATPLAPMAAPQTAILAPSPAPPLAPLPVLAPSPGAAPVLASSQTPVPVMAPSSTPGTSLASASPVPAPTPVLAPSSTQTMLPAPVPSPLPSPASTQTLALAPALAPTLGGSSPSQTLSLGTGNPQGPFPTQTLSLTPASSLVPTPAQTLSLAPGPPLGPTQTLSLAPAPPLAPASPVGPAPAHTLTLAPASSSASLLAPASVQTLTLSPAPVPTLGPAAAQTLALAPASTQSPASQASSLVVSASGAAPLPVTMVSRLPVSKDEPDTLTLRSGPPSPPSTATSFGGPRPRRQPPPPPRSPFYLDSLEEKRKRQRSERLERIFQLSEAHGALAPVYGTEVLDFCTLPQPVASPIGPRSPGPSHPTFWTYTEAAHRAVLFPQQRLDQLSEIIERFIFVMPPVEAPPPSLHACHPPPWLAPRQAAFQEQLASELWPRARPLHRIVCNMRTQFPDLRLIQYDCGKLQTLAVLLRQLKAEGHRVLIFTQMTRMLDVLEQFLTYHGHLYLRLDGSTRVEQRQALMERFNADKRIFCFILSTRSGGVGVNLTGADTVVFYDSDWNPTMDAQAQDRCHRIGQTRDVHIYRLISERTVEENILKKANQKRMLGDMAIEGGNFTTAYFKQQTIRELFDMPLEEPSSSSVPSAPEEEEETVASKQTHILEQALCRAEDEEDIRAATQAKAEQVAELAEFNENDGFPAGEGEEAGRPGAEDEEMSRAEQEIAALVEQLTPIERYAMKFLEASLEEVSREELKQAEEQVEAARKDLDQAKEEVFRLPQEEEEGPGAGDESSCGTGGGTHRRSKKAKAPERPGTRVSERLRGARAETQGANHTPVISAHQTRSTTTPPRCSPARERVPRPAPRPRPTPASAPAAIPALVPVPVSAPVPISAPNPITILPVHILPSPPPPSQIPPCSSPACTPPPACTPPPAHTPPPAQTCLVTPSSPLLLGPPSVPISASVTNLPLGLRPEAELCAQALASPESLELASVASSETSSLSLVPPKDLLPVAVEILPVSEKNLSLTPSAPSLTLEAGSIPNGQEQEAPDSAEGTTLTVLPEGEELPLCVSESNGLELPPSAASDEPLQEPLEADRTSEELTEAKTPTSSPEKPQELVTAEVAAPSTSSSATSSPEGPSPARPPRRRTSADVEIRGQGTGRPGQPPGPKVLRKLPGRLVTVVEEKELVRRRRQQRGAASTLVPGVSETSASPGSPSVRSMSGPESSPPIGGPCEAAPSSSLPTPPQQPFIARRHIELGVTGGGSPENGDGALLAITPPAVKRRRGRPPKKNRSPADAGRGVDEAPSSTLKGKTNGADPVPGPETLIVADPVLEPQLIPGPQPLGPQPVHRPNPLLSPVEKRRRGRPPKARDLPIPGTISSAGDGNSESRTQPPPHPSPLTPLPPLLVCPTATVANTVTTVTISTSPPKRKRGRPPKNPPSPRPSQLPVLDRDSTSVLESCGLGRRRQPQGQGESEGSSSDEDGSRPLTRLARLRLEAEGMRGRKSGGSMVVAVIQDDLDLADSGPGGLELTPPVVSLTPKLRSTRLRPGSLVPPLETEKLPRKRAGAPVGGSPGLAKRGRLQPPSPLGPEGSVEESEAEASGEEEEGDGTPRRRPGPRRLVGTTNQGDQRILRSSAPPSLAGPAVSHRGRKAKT
UniProt O76094: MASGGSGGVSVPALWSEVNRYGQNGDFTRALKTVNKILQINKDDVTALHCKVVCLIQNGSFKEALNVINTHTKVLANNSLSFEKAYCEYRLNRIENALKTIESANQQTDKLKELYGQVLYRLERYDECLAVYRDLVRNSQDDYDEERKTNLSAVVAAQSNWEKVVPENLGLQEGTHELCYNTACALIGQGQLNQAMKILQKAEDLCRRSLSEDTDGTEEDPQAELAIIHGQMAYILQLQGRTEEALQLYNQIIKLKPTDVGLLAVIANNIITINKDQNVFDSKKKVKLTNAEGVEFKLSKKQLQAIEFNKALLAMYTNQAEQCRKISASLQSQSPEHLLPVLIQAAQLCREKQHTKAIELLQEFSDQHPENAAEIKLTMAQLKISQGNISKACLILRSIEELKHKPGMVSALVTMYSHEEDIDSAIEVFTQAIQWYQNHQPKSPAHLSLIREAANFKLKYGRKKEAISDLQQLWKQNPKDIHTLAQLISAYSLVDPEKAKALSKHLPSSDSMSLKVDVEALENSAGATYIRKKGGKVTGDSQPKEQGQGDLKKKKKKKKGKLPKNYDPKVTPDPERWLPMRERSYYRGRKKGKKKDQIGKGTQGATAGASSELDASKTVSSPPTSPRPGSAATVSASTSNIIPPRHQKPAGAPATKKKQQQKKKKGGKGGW
UniProt Q96R06: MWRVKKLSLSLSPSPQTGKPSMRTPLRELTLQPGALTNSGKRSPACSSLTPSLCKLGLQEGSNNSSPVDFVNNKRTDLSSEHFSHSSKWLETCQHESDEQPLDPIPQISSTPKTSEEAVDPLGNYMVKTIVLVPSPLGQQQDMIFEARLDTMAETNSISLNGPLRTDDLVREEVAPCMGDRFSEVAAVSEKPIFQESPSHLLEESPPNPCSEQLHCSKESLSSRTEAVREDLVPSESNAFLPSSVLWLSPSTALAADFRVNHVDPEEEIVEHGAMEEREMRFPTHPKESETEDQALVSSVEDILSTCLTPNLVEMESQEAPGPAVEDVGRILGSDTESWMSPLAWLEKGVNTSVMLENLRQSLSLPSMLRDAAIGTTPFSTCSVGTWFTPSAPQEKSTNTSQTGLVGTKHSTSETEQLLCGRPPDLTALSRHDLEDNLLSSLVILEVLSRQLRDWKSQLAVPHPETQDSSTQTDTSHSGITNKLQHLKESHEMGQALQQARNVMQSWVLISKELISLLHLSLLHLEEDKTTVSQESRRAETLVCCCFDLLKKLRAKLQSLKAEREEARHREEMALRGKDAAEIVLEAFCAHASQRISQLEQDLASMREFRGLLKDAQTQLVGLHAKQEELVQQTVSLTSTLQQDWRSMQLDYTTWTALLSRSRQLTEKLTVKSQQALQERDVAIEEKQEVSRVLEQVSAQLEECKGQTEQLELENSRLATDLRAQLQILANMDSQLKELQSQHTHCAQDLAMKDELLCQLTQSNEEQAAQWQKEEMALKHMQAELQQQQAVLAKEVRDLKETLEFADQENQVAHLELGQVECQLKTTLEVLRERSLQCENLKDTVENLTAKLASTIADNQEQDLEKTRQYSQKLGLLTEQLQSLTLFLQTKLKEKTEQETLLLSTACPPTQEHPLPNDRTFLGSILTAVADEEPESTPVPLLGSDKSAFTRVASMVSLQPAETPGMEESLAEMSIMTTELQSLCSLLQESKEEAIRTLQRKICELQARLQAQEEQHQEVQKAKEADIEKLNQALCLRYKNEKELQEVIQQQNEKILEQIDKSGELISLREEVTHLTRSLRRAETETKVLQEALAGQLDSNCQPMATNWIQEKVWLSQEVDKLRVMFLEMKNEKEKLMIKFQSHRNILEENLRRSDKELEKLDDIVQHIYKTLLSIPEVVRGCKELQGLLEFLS
UniProt P09132: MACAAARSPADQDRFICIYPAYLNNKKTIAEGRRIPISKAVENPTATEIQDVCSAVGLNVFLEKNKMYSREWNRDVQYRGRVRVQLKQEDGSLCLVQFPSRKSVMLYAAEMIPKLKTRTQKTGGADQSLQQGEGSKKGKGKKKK
UniProt P00441, whole entry, looked up: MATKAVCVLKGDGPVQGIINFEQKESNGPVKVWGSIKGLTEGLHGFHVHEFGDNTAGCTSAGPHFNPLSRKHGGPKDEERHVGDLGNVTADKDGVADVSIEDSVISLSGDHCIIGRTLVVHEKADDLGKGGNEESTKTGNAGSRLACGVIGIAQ
UniProt Q8NCJ5: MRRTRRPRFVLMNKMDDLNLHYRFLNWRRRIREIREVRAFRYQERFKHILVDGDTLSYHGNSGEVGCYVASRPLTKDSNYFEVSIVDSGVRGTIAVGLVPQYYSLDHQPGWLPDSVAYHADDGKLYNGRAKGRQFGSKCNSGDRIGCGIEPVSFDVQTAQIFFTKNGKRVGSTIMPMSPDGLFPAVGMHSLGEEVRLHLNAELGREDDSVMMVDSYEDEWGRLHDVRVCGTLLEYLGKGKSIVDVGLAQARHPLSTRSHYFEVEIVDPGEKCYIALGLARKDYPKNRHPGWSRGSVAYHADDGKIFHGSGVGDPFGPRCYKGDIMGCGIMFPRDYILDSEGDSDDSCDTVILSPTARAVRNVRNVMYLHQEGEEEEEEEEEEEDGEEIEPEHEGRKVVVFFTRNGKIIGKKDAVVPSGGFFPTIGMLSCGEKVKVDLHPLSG

Target | probe-labelled cysteine peptide fold change (10 µM) | probe-labelled cysteine peptide fold change (50 µM)
SQOR_Q9Y6N5_337_RYPNVFGIGDCTNLPTSK (UniProt Q9Y6N5) | -0.0864 | 0.00585
SQSTM1_Q13501_113_RDHRPPCAQEAPR (UniProt Q13501) | -0.0103 | -0.579
SRPK1_Q96SB4_455_AEIPCEDEQEQEHNGPLDNK (UniProt Q96SB4) | -0.137 | -0.0035
SRBD1_Q8N5C6_571_LAIISPTSQILHTDVVYLHCGQGFR (UniProt Q8N5C6) | 0.207 | -0.0215
SORBS3_O60504_521_LCDDGPQLPTSPR (UniProt O60504) | -0.236 | -0.00591
SNTB1_Q13884_515_DGEIQLDLHSCPK (UniProt Q13884) | -0.136 | 1
SNX2_O60749_332_LHVSVEALVCHR (UniProt O60749) | -0.15 | -0.341
SPAG9_O60271_1210_VTPGTFIPYCSMAHAQLCFHGHR (UniProt O60271) | 0.231 | 1.04
SNX18_Q96RF0-2_570_CNTISFATLAEIHHFHQIR (UniProt Q96RF0) | 0.117 | 0.283
SRCAP_Q6ZRS2_141_GHWDYLCEEMQWLSADFAQER (UniProt Q6ZRS2) | 0.0867 | 0.529
SRI_P30626_75_CLTQSGIAGGYKPFNLETCR (UniProt P30626) | 0.349 | 0.00534
SRP72_O76094_54_VVCLIQNGSFK (UniProt O76094) | 0.0906 | -0.275
SP140_Q13342_686_SQNNSSVDPCMR (UniProt Q13342) | -0.246 | -0.188
SPC24_Q8NBT2_155_IEWDYECEPGMVK (UniProt Q8NBT2) | -0.17 | 0.000933
SPTAN1_Q13813_2233_TYLLDGSCMVEESGTLESQLEATK (UniProt Q13813) | -0.192 | -0.216
SRC_P12931_248_LTTVCPTSKPQTQGLAK (UniProt P12931) | -0.161 | -0.356
SPAG5_Q96R06_907_TEQETLLLSTACPPTQEHPLPNDR (UniProt Q96R06) | -0.115 | 0.0555
SQSTM1_Q13501_131_NMVHPNVICDGCNGPVVGTR (UniProt Q13501) | 0.13 | -0.625
SNX27_Q96L92_513_IFTPYFNYMHECFER (UniProt Q96L92) | 0.116 | 0.4

Target | probe-labelled cysteine peptide fold change (10 µM) | probe-labelled cysteine peptide fold change (50 µM)
SPOUT1_Q5T280_151_ILQYLECPQYLR (UniProt Q5T280) | -0.0551 | 0.304
SORBS3_O60504_645_EGDRVDVMQQCDDGWFVGVSR (UniProt O60504) | -0.0836 | -0.33
SPATA5L1_Q9BVQ7_104_LLLVPCPPLRR (UniProt Q9BVQ7) | 0.19 | 0.0616
SON_P18583-2_2133_DLMANATCFR (UniProt P18583) | 5.1e-05 | -0.396
SRC_P12931_241_HADGLCHR (UniProt P12931) | -0.0104 | 0.065
SP3_Q02447_623+628_KQHICHIPGCGK (UniProt Q02447) | 0.0494 | -0.374
SPATS2_Q86XZ4_61_SNNEIILVLQHFDNCVDK (UniProt Q86XZ4) | -0.158 | -0.611
SRP19_P09132_94_QEDGSLCLVQFPSR (UniProt P09132) | 0.368 | 0.591
SORD_Q00796_45_MHSVGICGSDVHYWEYGR (UniProt Q00796) | -0.268 | -0.769
SRP68_Q9UHB9_562_FETFCLDPSLVTK (UniProt Q9UHB9) | -0.0556 | -0.0627
SOD1_P00441_112_DGVADVSIEDSVISLSGDHCIIGR (UniProt P00441) | -0.0707 | -0.0212
SON_P18583_92_CVSVQTDPTDEIPTKK (UniProt P18583) | -0.351 | -1.24
SNX6_Q9UNH7_348_DVLQAETSQQLCCQK (UniProt Q9UNH7) | 0.158 | 0.0542
SPRYD3_Q8NCJ5_272_CYIALGLAR (UniProt Q8NCJ5) | 0.214 | 0.233
SPATA20_Q8TB22_721_ALVQCVHSVYIPNK (UniProt Q8TB22) | 0.0848 | -0.0853
SP110_Q9HB58_283_CIWSTPK (UniProt Q9HB58) | -0.483 | -0.666
SNX20_Q7Z614_236_LTAHCPAAAVPALCAVLLCHR (UniProt Q7Z614) | -0.104 | -0.142
SPAG5_Q96R06_704_VLEQVSAQLEECK (UniProt Q96R06) | 0.112 | 0.178
SRCAP_Q6ZRS2_1993_FIFVMPPVEAPPPSLHACHPPPWLAPR (UniProt Q6ZRS2) | 0.0413 | 0.0126

2 entries drawn at random from the list so far, as already listed:
Target | probe-labelled cysteine peptide fold change (10 µM) | probe-labelled cysteine peptide fold change (50 µM)
SPAG5_Q96R06_704_VLEQVSAQLEECK (UniProt Q96R06) | 0.112 | 0.178
SPRYD3_Q8NCJ5_272_CYIALGLAR (UniProt Q8NCJ5) | 0.214 | 0.233

From the supplement of paper PMC12067093, “Discovery and optimisation of a covalent ligand for TRIM25 and its application to targeted protein ubiquitination” (Chemical Science, 2025)
